Test results from PMC6019448.
Residue numbers refer to the chain shown, from its start. These are yes or no findings as the source states them, for the method shown. For part of these data: In cells and extracts the contact can be indirect. Some entries that bind do so weakly or less than the wild type. For part of these data: Where a sequence is shown, tags or fusion partners need not be part of it.

Tests used:
human RIG-I (human) = target: T1, human RIG-I (human) (UniProt O95786); assay: co-IP; 293T cells transfected with equal amounts of Flag- and Myc-tagged plasmids, lysed 24 h after transfection; anti-Flag IP with protein A + G agarose overnight at 4°C, Western blot with c-Myc antibody
T1 sequence: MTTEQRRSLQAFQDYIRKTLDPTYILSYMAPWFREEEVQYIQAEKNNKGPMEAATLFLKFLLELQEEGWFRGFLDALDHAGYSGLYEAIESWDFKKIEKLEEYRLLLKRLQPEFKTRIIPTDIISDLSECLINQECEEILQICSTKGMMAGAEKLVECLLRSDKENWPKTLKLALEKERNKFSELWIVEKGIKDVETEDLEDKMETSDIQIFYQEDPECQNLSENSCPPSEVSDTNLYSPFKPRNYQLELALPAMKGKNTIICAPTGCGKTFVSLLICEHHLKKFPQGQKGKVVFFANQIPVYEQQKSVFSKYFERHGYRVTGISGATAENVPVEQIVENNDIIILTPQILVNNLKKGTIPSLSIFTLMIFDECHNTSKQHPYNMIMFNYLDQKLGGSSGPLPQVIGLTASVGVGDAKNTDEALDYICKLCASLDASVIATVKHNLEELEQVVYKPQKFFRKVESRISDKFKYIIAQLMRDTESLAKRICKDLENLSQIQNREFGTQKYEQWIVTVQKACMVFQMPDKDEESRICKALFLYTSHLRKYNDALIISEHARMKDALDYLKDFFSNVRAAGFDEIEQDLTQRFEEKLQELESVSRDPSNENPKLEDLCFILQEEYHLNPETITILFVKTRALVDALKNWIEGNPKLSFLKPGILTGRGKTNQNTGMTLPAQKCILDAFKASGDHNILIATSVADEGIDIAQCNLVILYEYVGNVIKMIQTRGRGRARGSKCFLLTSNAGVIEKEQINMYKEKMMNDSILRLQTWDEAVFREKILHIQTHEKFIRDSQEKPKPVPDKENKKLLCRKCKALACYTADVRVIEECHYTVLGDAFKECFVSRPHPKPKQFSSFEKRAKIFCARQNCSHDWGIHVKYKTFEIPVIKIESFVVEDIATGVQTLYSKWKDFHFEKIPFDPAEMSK

mouse RIG-I (mouse) = target: T2, mouse RIG-I (mouse) (UniProt Q6Q899); assay: as above
T2 sequence: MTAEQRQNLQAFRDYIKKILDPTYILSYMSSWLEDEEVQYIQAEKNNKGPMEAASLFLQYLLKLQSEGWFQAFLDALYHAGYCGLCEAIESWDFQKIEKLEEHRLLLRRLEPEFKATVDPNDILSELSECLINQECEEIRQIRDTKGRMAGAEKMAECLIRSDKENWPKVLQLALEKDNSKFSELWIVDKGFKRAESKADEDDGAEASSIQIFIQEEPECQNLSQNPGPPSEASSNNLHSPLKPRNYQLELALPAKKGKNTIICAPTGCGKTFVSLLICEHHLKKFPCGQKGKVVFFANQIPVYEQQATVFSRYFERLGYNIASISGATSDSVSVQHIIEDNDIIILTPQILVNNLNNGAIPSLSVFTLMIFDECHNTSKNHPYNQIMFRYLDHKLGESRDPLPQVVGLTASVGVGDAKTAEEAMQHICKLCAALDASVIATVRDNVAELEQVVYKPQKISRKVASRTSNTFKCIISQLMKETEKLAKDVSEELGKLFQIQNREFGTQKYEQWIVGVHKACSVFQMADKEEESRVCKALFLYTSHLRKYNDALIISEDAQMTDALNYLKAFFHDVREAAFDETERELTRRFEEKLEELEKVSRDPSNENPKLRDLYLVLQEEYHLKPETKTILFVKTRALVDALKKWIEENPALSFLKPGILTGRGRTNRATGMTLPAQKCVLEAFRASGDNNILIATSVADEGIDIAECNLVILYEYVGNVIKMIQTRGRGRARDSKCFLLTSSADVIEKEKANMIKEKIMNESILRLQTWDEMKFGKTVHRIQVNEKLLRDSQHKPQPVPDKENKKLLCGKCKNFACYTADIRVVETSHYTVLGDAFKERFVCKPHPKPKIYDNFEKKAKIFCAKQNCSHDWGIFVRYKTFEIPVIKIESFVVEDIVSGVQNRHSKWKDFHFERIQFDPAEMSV

[1] = target: T3, duck RIG-I, Gal4 DNA-binding domain fusion (bait) (duck) (UniProt D3TI84); assay: two-hybrid; full-length RIG-I as Gal4 DNA-binding domain bait (pGBKT7), OASL proteins as prey (pGADT7), S. cerevisiae AH109; selection on double-, triple- and quadruple-dropout medium
T3 sequence: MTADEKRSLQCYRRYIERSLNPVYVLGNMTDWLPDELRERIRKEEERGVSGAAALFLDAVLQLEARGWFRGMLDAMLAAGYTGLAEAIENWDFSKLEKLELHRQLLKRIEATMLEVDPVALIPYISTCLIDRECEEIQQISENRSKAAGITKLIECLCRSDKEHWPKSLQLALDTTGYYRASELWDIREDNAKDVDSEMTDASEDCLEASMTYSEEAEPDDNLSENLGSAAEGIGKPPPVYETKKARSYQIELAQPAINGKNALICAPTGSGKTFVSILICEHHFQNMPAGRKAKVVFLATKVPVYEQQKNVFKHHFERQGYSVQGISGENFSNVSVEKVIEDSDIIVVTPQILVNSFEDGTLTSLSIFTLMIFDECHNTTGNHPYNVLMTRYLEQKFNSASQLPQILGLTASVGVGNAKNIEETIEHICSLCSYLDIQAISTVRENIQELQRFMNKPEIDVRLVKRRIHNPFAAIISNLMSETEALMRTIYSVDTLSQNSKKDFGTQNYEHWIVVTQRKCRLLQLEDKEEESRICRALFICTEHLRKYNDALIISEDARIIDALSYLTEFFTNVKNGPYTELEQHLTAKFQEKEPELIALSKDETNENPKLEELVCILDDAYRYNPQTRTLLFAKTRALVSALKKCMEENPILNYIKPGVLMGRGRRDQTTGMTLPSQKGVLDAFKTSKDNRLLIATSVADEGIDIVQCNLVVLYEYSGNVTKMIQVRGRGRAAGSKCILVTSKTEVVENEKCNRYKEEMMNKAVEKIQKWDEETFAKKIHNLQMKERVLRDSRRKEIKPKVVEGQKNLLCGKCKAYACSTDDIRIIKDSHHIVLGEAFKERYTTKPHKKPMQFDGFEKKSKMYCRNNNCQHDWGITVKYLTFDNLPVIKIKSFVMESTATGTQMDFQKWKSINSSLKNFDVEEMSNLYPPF

B1: human OASL-3D (protein, UniProt Q15646 1-514)
chain: MALMQELYSTPASRLDSFVAQWLQPHREWKEEVLDAVRTVEEFLRQEHFQGKRGLDQDVRVLKVVKVGSFGNGTVLRSTRDVDLVAFLSCFHSFQEAAKHHKDVLRLIWKTMWQSQDLLDLGLEDLRMEQRVPDALVFTIQTRGTAEPITVDIVPAYRALGPSLPNSQPPPEVYVSLIKACGGPGNFCPSFSELQRNFVKHRPTKLKSLLRLVKHWYQQYVKARSPRANLPPLYALELLTIYAWEMGTEEDENFMLDEGFTTVMDLLLEYEVICIYWTKYYTLHNAIIEDCVRKQLKKERPIILDPADPTLNVAEGYRWDIVAQRASQCLKQDCCYDNRENPISSWNVKRARDIHLTVEQRGYPDFNLIVNPYEPIRKVKEKIRRTRGYSGLQRLSFQVPGSERQLLSSRCSLAKYGIFSHTHIYLLETIPSEIQVFVKNPDGGSYAYAINPNSFILGLKQQIEDQQGLPKKQQQLEFQGQVLQDWLGLGIYGIQDSDTLILSKKKGEALFPAS
Question: With B1 as the binder, how does the binding (human RIG-I (human)) read?
Answer: Its binding is “binds”.

B2: mouse Oasl2 (protein, UniProt Q9Z2F2 1-508)
chain: MDPFPDLYATPGDSLDHFLEHSLQPQRDWKEEGQDAWERIERFFREQCFRDELLLDQEVRVIKVVKGGSSGKGTTLNHRSDQDMILFLSCFSSFEEQARNREVVISFIKKRLIHCSRSLAYNIIVLTHREGKRAPRSLTLKVQSRKTDDIIWMDILPAYDALGPISRDSKPAPAIYETLIRSKGYPGDFSPSFTELQRHFVKTRPVKLKNLLRLVKFWYLQCLRRKYGRGAVLPSKYALELLTIYAWEMGTESSDSFNLDEGFVAVMELLVNYRDICIYWTKYYNFQNEVVRNFLKKQLKGDRPIILDPADPTNNLGRRKGWEQVAAEAAFCLLQVCCTTVGPSERWNVQRARDVQVRVKQTGTVDWTLWTNPYSPIRKMKAEIRREKNFGGELRISFQEPGGERQLLSSRKTLADYGIFSKVNIQVLETFPPEILVFVKYPGGQSKPFTIDPDDTILDLKEKIEDAGGPCAEDQVLLLDDEELEDDESLKELEIKDCDTIILIRVID
Question: B2 was tested. Which binding (mouse RIG-I (mouse)) did it give?
Answer: Its binding is “binds”.

B3: human OASL, two-hybrid prey (protein, UniProt Q15646 1-514)
chain: B1 chain with D81E, D83E, D152T
Question: B3 was tested. Which binding [1] did it give?
Answer: The binding was “no binding”.
